Results deposited as PubChem BioAssay AID1159584 (Peter MacCallum Cancer Centre, 2016)
This is a random part of about 18,000 deposited reagents. No sequences are given here. The record does not give: the amount of reagent, the time to read-out.

Test: 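Knock-downs that harm CDH1-null cells more than parental MCF10A cells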 (primary screen)
Cells: human MCF10A breast epithelial cells, parental and CDH1-null
Knock-down reagent: siRNA against human genes
Measured: 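ATP luminescence (CellTiter-Glo) viability per line relative to mean mock wells over all plates, and the ratio of CDH1-null to parental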
Reading the numbers: CDH1-null / parental viability ratio: higher = CDH1-null cells survive relatively better than parental; CDH1-null viability vs mock: higher = more viable CDH1-null cells; parental viability vs mock: higher = more viable parental cells

gene knocked down | CDH1-null / parental viability ratio | CDH1-null viability vs mock (fraction of mock) | parental viability vs mock (fraction of mock)
TTC21A | 0.76 | 0.38 | 0.5
WDR7 | 1.14 | 0.82 | 0.72
SYCP1 | 0.67 | 0.38 | 0.57
UBE2D2 | 1.13 | 0.8 | 0.71
RNF185 | 1 | 1 | 1
OR6C65 | 1.17 | 0.98 | 0.84
KRTAP20-1 | 1.12 | 0.74 | 0.66
SLAMF6 | 0.96 | 0.86 | 0.9
YIPF2 | 0.91 | 0.75 | 0.82
GARIN6 | 0.86 | 0.9 | 1.05
CDK5 | 0.9 | 0.73 | 0.81
ABI3BP | 1.13 | 0.87 | 0.77
BTBD10 | 1.52 | 0.82 | 0.54
CCNY | 1.16 | 1.02 | 0.88
MRPL38 | 0.86 | 0.36 | 0.42
TSPAN10 | 0.99 | 0.86 | 0.87
CCL5 | 0.87 | 0.82 | 0.94
MRPL9 | 0.86 | 0.86 | 1
CDK5R1 | 0.91 | 0.64 | 0.7
RPL31 | 1.07 | 0.32 | 0.3
PLA1A | 0.85 | 0.82 | 0.96
RARRES2 | 0.97 | 0.9 | 0.93
STYK1 | 1.27 | 0.66 | 0.52
RCBTB1 | 1.08 | 0.82 | 0.76
EPN1 | 1.05 | 0.67 | 0.64
NSUN6 | 0.79 | 0.69 | 0.87
MTIF3 | 0.69 | 0.41 | 0.59
NEK9 | 0.99 | 0.74 | 0.75
RIMS2 | 1.1 | 0.99 | 0.9
LIG3 | 1.03 | 1.2 | 1.17
SAMD7 | 0.98 | 1.03 | 1.05
NUP107 | 0.87 | 0.48 | 0.55
FZD5 | 0.86 | 0.84 | 0.98
SLIRP | 0.86 | 0.74 | 0.86
NUDT2 | 1.22 | 0.82 | 0.67
ZNF202 | 0.83 | 0.76 | 0.92
MGMT | 1.19 | 1.12 | 0.94
CNDP2 | 1.23 | 0.91 | 0.74
EXD1 | 1.04 | 0.71 | 0.68
MAST2 | 0.58 | 0.38 | 0.66
GEMIN2 | 1.12 | 1.01 | 0.9
TMEM160 | 0.5 | 0.43 | 0.86
PLEKHB1 | 1.28 | 0.46 | 0.36

In a second layout: results already given
{"gene knocked down":"TSPAN10","CDH1-null / parental viability ratio":0.99,"CDH1-null viability vs mock (fraction of mock)":0.86,"parental viability vs mock (fraction of mock)":0.87}
{"gene knocked down":"CCL5","CDH1-null / parental viability ratio":0.87,"CDH1-null viability vs mock (fraction of mock)":0.82,"parental viability vs mock (fraction of mock)":0.94}
{"gene knocked down":"MRPL9","CDH1-null / parental viability ratio":0.86,"CDH1-null viability vs mock (fraction of mock)":0.86,"parental viability vs mock (fraction of mock)":1}
{"gene knocked down":"CDK5R1","CDH1-null / parental viability ratio":0.91,"CDH1-null viability vs mock (fraction of mock)":0.64,"parental viability vs mock (fraction of mock)":0.7}
{"gene knocked down":"RPL31","CDH1-null / parental viability ratio":1.07,"CDH1-null viability vs mock (fraction of mock)":0.32,"parental viability vs mock (fraction of mock)":0.3}
{"gene knocked down":"PLA1A","CDH1-null / parental viability ratio":0.85,"CDH1-null viability vs mock (fraction of mock)":0.82,"parental viability vs mock (fraction of mock)":0.96}
{"gene knocked down":"RARRES2","CDH1-null / parental viability ratio":0.97,"CDH1-null viability vs mock (fraction of mock)":0.9,"parental viability vs mock (fraction of mock)":0.93}

More records:
gene knocked down | CDH1-null / parental viability ratio | CDH1-null viability vs mock (fraction of mock) | parental viability vs mock (fraction of mock)
ITIH1 | 1.15 | 0.55 | 0.48
SALL1 | 1.14 | 0.48 | 0.42
AASDHPPT | 0.96 | 0.81 | 0.84
OR51F1 | 1.5 | 0.87 | 0.58
IGSF1 | 1.13 | 0.93 | 0.82
MFN2 | 0.83 | 0.8 | 0.96
NUDT18 | 1 | 1.04 | 1.04
SANBR | 0.99 | 0.9 | 0.91
CEACAM1 | 1.12 | 0.96 | 0.86
H4C14 | 1.14 | 0.75 | 0.66
OR1F1 | 0.97 | 0.58 | 0.6
ACSL5 | 0.79 | 0.71 | 0.9
FAAH2 | 0.97 | 0.7 | 0.72
GNGT1 | 0.87 | 0.52 | 0.6
COPS7B | 1.28 | 0.74 | 0.58
IGFN1 | 0.88 | 0.74 | 0.84
PKD1L3 | 1.3 | 0.91 | 0.7
HOXD9 | 1 | 0.52 | 0.52
IVL | 1.36 | 0.57 | 0.42
CD3D | 1.12 | 1.02 | 0.91
OR4S2 | 1.2 | 0.77 | 0.64
COL15A1 | 1.07 | 0.96 | 0.9
TENT5B | 1.04 | 0.52 | 0.5
SNORC | 1.5 | 1.23 | 0.82
INTS3 | 0.96 | 0.86 | 0.9
